Laboratory results taken from PubChem BioAssay AID493014 (National Center for Advancing Translational Sciences (NCATS), 2011).
In all, about 340,000 compounds went through this assay and about 170 (0.05%) were called active. Inconclusive means that the source gave no clear call. Such entries were picked first, then a sample of the others. Calls come from the whole dose curve; as a rule, active = well fitted inhibition curve with a large enough effect in the signal ratio, with a control signal flat (not every such curve was filed as active); inconclusive = small, poorly fitted or top-dose-only effect, or effect the other way, or a change in a side signal; inactive = flat fitted curve, though single readings scatter; the % refers to the signal ratio. A potency beside an inconclusive call is a rough fit, not a confirmed value.

Assay: qHTS Assay to Find Inhibitors of Chronic Active B-Cell Receptor Signaling;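 for activity change, negative = inhibition: plate controls were basal doxycycline-induced cells for no effect and cells given 10 µM MG132 for full effect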
Conditions: ABC-DLBCL IkBa-CBG/CBR reporter, luminescence ratio (green luciferase fused to IkBa over red control in TMD8 lymphoma cells), 4 h; activity change, negative = inhibition: at 46.1 µM (top of the series) unless noted
Procedure, shortened: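 TMD8 ABC-DLBCL cells carrying doxycycline-inducible green luciferase fused to IkappaBalpha plus unfused red luciferase were exposed to compounds (up to 46 uM) for 4 hrs at 37C. Activity came from the overlap-corrected green/red luminescence ratio.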
Potency is the fitted concentration of half-maximal effect.

Q: For `O=C(NC1CC1)C(=O)c1c[nH]c2ccccc12`, which Potency is on record?
A: inconclusive: 17.8 µM [falling, partial curve, poor fit]

Q: With `COc1cc(CC(=O)OCC(=O)Nc2ccccc2C#N)cc(OC)c1OC` as the compound, how does the activity change, negative = inhibition read?
A: inconclusive: -0.992%

Q: Which activity change, negative = inhibition does the source give for `Cc1cccc([C@@H]2[C@@H]3C(=O)N(Cc4ccccc4)C(=O)[C@@H]3[C@]3(CC(C)C)C(=O)N(c4cccc(Cl)c4)C(=O)N23)c1` here?
A: inconclusive: 1.12%

Q: With `O=C1NC(=O)/C(=C/c2ccc(O)cc2)S1` as the compound, how does the activity change, negative = inhibition read?
A: inconclusive: -5.26%

Q: Which activity change, negative = inhibition does the source give for `O=C(CCC(=O)Nc1ccccc1)N/N=C/c1ccncc1` here?
A: inconclusive: 9.02%

Q: For `O=C1CN(C(=O)COC(=O)CCS(=O)(=O)c2ccccc2Cl)c2ccccc2N1`, which Potency is on record?
A: inconclusive: 20.6 µM [falling, partial curve, poor fit]

Q: Which activity change, negative = inhibition does the source give for `CNS(=O)(=O)c1cn(CC(=O)NCc2ccccc2OC)cc1S(=O)(=O)NC` here?
A: inconclusive: 0.373%

Q: Which activity change, negative = inhibition does the source give for `COc1cccc(-c2nn(C)c3sc(C(=O)NCCCN(C)Cc4ccccc4)cc23)c1` here?
A: inactive

Q: With `Cc1cc(C)cc(CC2CC(=O)N(c3ccc([N+](=O)[O-])cc3)C2=O)c1` (stereo unspecified) as the compound, how does the activity change, negative = inhibition read?
A: inconclusive: 5.36%

Q: Which activity change, negative = inhibition does the source give for `COc1ccc(Cl)cc1NC(=O)c1noc2c1CCCC2` here?
A: inconclusive: 19.5%

Q: With `COC(=O)C1CSC(C)(C)C(=O)N1` (stereo unspecified) as the compound, how does the activity change, negative = inhibition read?
A: inactive

Q: Which activity change, negative = inhibition does the source give for `Cc1c(-c2ccncc2)oc2ccc(Br)cc2c1=O` here?
A: inconclusive: 12.1%

Q: For `CCOC(=O)c1cccc(Nc2ncnc3ccccc23)c1`, which Potency is on record?
A: inconclusive: 23.1 µM [falling, single point]

Q: For `Cc1cc2ccccn2c1C(=O)c1ccc([N+](=O)[O-])o1`, which Potency is on record?
A: inconclusive: 20 µM [falling, single point]

Q: For `O/N=C/c1ccc2ccccc2n1`, which activity change, negative = inhibition is on record?
A: inactive

Q: For `COc1cccc(-c2nc(C(N)=O)c3[nH]c(=O)n(-c4cccc(Cl)c4)c3n2)c1OC`, which activity change, negative = inhibition is on record?
A: inconclusive: 1.22%

Q: For `Cc1cc(Cl)c(S(=O)(=O)N2CCCCCC2)cc1OCC(N)=O`, which Potency is on record?
A: inconclusive: 18.4 µM [falling, partial curve, poor fit]

Q: Which Potency does the source give for `Cc1cc(C(=O)N/N=C/c2ccc(N(C)C)cc2)c2ccccc2n1` here?
A: inconclusive: 35.5 µM [cytotoxic, single point]

Q: Which activity change, negative = inhibition does the source give for `CCN(CC)S(=O)(=O)c1ccc(N2CCOCC2)c(NS(=O)(=O)c2cc(C(C)(C)C)ccc2C)c1` here?
A: inconclusive: -0.705%

Q: For `Cn1c(N)c(C(=O)COC(=O)/C=C/c2ccccc2F)c(=O)n(C)c1=O`, which activity change, negative = inhibition is on record?
A: inconclusive: 11%

Q: With `O=C(CSc1nnc2scc(-c3ccccc3)n12)N1CCN(Cc2ccccc2)CC1` as the compound, how does the activity change, negative = inhibition read?
A: inconclusive: 0.906%

Q: Which activity change, negative = inhibition does the source give for `CCCCNC(=S)Nc1ccc2nc(N3CCN(CC)CC3)cc(C)c2c1` here?
A: inconclusive: -2.31%

Q: Which Potency does the source give for `Cc1[nH]c2ccc(F)cc2c1CCN(Cc1cccnc1)C(=S)Nc1ccc(F)cc1` here?
A: inconclusive: 12.6 µM [falling, partial curve]

Q: Which Potency does the source give for `CCOc1ccc(NC(=O)Nc2cccc(C(=O)O)c2)cc1` here?
A: inconclusive: 5.01 µM [rising, full curve]

Q: For `O=C1C2C3c4ccccc4C(c4ccccc43)C2c2nc3ccccc3n21` (stereo unspecified), which activity change, negative = inhibition is on record?
A: inconclusive: 11.6%

Q: For `c1ccc(CCNc2ncnc3sccc23)nc1`, which activity change, negative = inhibition is on record?
A: inactive

Q: For `Cc1cccc(N2CCN(C(=O)C(C)C)CC2)c1C`, which activity change, negative = inhibition is on record?
A: inconclusive: 13.5%

Q: Which Potency does the source give for `S=C(NCc1ccccn1)Nc1ccc(Cl)c(Cl)c1` here?
A: inconclusive: 35.5 µM [cytotoxic, single point]

Q: For `COc1ccc(OC)c(NC(=O)CC2Oc3ccccc3NC2=O)c1` (stereo unspecified), which activity change, negative = inhibition is on record?
A: inactive

Q: Which activity change, negative = inhibition does the source give for `CC(=O)N1CCc2cc(C(=O)CN3CCCN(Cc4ccc(F)cc4)C3)ccc21` here?
A: inconclusive: 4.48%

Q: Which Potency does the source give for `CN(C)c1ccc(C(=O)Nc2nnc(C3=COCCO3)o2)cc1` here?
A: inconclusive: 17.8 µM [falling, single point]

Q: With `COc1ccc(-c2ccnc(SCC(=O)Nc3ccccn3)n2)cc1` as the compound, how does the Potency read?
A: inconclusive: 3.26 µM [falling, partial curve, poor fit]

Q: With `Cc1nc(Nc2ccc3c(c2)OCCO3)c2oc3ccccc3c2n1` as the compound, how does the activity change, negative = inhibition read?
A: inconclusive: 2.79%

Q: Which activity change, negative = inhibition does the source give for `CC/C(=N/N=C(\CC)c1ccccc1)c1ccccc1` here?
A: inconclusive: 9.63%

Q: For `O=C(NCCCc1ccccc1)c1cccc([N+](=O)[O-])c1`, which activity change, negative = inhibition is on record?
A: inconclusive: -2.08%

Q: For `S=C(Nc1ccccc1)Nc1ccc(Br)cn1`, which activity change, negative = inhibition is on record?
A: inconclusive: 12.6%

Q: With `COc1ccc(C2=Nn3c(nnc3-c3ccncc3)SC2)cc1OC` as the compound, how does the Potency read?
A: inconclusive: 20.6 µM [falling, partial curve]

Q: For `COc1cccc(NC(=O)NC2CCCCCCC2)c1`, which activity change, negative = inhibition is on record?
A: inactive

Q: Which Potency does the source give for `COc1cccc2c1OCC1COc3c(c(=O)n(C)c(=O)n3C)C21` (stereo unspecified) here?
A: inconclusive: 17.8 µM [falling, single point]

Q: Which activity change, negative = inhibition does the source give for `CCn1c2ccccc2c2cc(NC(=O)C(=O)N3CCOCC3)ccc21` here?
A: inconclusive: -0.859%

Q: With `O=C(Nc1ccccc1)Nc1ccccc1C(=O)NCC1CC1` as the compound, how does the Potency read?
A: inconclusive: 3.16 µM [falling, full curve]

Q: Which activity change, negative = inhibition does the source give for `CCc1ccc(NC(=O)CSC2=Nc3ccccc3C3=NC(CC(=O)NCc4cccs4)C(=O)N23)cc1` (stereo unspecified) here?
A: inconclusive: 1.86%

Q: With `CC(=O)Nc1cccc(OCc2c(F)cccc2Cl)c1` as the compound, how does the Potency read?
A: inconclusive: 35.5 µM [falling, single point]

Q: For `COc1ccc2[nH]c(=O)c(C(c3nnnn3C3CCCC3)N3CCN(Cc4ccc5c(c4)OCO5)CC3)cc2c1` (stereo unspecified), which activity change, negative = inhibition is on record?
A: inconclusive: 11.3%

Q: For `CCCC1=C(C(=O)OCC)C(c2ccccc2OC)NC(=O)N1` (stereo unspecified), which activity change, negative = inhibition is on record?
A: inconclusive: -3.64%

Q: With `CCOC(=O)[C@H]1[C@H]2COc3ccccc3[C@@H]2N2C(=O)c3cc(OC)ccc3NC(=O)[C@@]12C` as the compound, how does the activity change, negative = inhibition read?
A: inconclusive: 22.8%

Q: With `Cc1ccc(S(=O)(=O)N2CCC(C(=O)Nc3ccccc3N3CCCC3)CC2)cc1` as the compound, how does the activity change, negative = inhibition read?
A: inconclusive: 10.2%

Q: For `C=CCNC(=S)NNC(=O)COc1ccc(Cl)cc1Cl`, which Potency is on record?
A: inconclusive: 29.1 µM [falling, single point]

Q: Which activity change, negative = inhibition does the source give for `COc1ccc(CCNC(=O)c2ccc(CN3CCC(Cc4ccccc4)CC3)cc2)cc1` here?
A: inactive

Q: For `Cn1cnc2c1c(=O)n(Cc1ccc(F)cc1Cl)c(=O)n2C`, which activity change, negative = inhibition is on record?
A: inactive

Q: Which activity change, negative = inhibition does the source give for `COC(=O)c1cn(-c2ccccc2)nc1-c1ccncc1` here?
A: inconclusive: 0.318%

Q: With `Oc1c(/C=C/C=C/C=Nc2ccccc2)sc(=S)n1Cc1ccccc1` as the compound, how does the activity change, negative = inhibition read?
A: inconclusive: -2.93%

Q: With `O=C(CSc1nccn1-c1ccccc1)c1ccc(Br)cc1` as the compound, how does the Potency read?
A: inconclusive: 0.316 µM [rising, full curve, poor fit]

Q: With `CCn1c(CCC(N)=O)nnc1SCC(=O)c1cc(C)n(C2CC2)c1C` as the compound, how does the activity change, negative = inhibition read?
A: inactive

Q: For `O=C(Nc1nc(-c2cc3ccccc3oc2=O)cs1)c1ccco1`, which activity change, negative = inhibition is on record?
A: inactive

Q: Which activity change, negative = inhibition does the source give for `CN(C(=O)c1ccc(NC(=O)Cc2cccc(NC(=O)C3CCCN(C(=O)C4CCCC4)C3)c2)cc1)C1CCCC1` (stereo unspecified) here?
A: inactive

Q: Which activity change, negative = inhibition does the source give for `CCOc1ccc(N(CC(=O)Nc2ccc(OC)cc2)S(C)(=O)=O)cc1` here?
A: inactive

Q: For `CCOc1ccc(-c2nnn(CC(=O)N3CCN(c4ccc(F)cc4)CC3)n2)cc1OCC`, which activity change, negative = inhibition is on record?
A: inconclusive: 3.52%

Q: With `Cc1ccc(NC(=O)CSc2ncnc3ccccc23)cc1S(=O)(=O)N1CCOCC1` as the compound, how does the activity change, negative = inhibition read?
A: inconclusive: 2.89%

Q: Which activity change, negative = inhibition does the source give for `CCOc1cccc(C(=O)NC(=S)Nc2ccccc2)c1` here?
A: inconclusive: -0.754%

Q: With `S=C1NCN(CCc2ccccc2)CN1` as the compound, how does the activity change, negative = inhibition read?
A: inactive

Q: Which activity change, negative = inhibition does the source give for `COc1ccc(/C=C2\SC(N3CCCCC3)=NC2=O)cc1` here?
A: inactive

Q: Which activity change, negative = inhibition does the source give for `COc1cccc(CNC(=O)C2CCN(S(=O)(=O)c3cnc[nH]3)CC2)c1` here?
A: inconclusive: 4.5%

Q: Which activity change, negative = inhibition does the source give for `Nc1nnc(-c2ccco2)s1` here?
A: inactive

Q: For `Cc1c(C(=O)Oc2ccc(Br)cc2)sc2ncn(Cc3ccccc3F)c(=O)c12`, which activity change, negative = inhibition is on record?
A: inconclusive: -1.97%

Q: For `COCCOC(=O)c1c(C)n(C)c2ccc(OC(=O)c3ccco3)cc12`, which activity change, negative = inhibition is on record?
A: inconclusive: -1.82%

Q: Which activity change, negative = inhibition does the source give for `Cc1ccc(NC(=O)c2cccc(S(=O)(=O)N3CCN(c4ccc(F)cc4)CC3)c2)nc1` here?
A: inactive

Q: For `COc1ccc(-c2nc3ccccc3c(=O)n2-c2c(C)n(C)n(-c3ccccc3)c2=O)cc1`, which activity change, negative = inhibition is on record?
A: inconclusive: 2.35%

Q: For `CCc1ccc[n+](-c2[nH]c(=O)sc2/C=N/N=C(\N)[O-])c1`, which activity change, negative = inhibition is on record?
A: inconclusive: 9.57%

Q: Which Potency does the source give for `O=C(Nc1ccc2c(c1)OCO2)C1CCCCC1` here?
A: inconclusive: 17.8 µM [falling, single point]

Q: For `COc1ccc(-c2nnc(CSc3nc4ccccc4c(=O)n3CC(C)C)o2)cc1OC`, which activity change, negative = inhibition is on record?
A: inconclusive: 6.47%

Q: With `O=C(N/N=C/c1cccc(OCc2ccccc2)c1)c1cccs1` as the compound, how does the Potency read?
A: inconclusive: 2.24 µM [falling, full curve, poor fit]

Q: For `CC(C)Oc1ccccc1/C=N/Nc1ccccc1[N+](=O)[O-]`, which activity change, negative = inhibition is on record?
A: inconclusive: 2.36%

Q: Which activity change, negative = inhibition does the source give for `CC(C)NC(=O)N(C)C[C@@H]1Oc2ccc(NC(=O)CCN3CCOCC3)cc2CC(=O)N([C@@H](C)CO)C[C@@H]1C` here?
A: inconclusive: 1.03%

Q: Which Potency does the source give for `Cc1ccc(C)c(NS(=O)(=O)c2cc(C(=O)NCCC3=CCCCC3)ccc2C)c1` here?
A: inconclusive: 32.6 µM [falling, partial curve, poor fit]

Q: Which activity change, negative = inhibition does the source give for `CC(=O)c1ccc(NC(=O)CO/N=C(\C)c2cccs2)cc1` here?
A: inconclusive: 1.75%

Q: With `O=C(CSc1nc2ccccc2s1)c1ccc(O)cc1O` as the compound, how does the activity change, negative = inhibition read?
A: inconclusive: -3.23%

Q: Which Potency does the source give for `Nc1ccc(-c2ccc(C(=O)O)s2)cn1` here?
A: inconclusive: 12.6 µM [falling, partial curve]

Q: Which activity change, negative = inhibition does the source give for `Cc1ccc(C=NNC(=O)c2cc(-c3cccnc3)nc3ccccc23)o1` here?
A: inactive

Q: With `COc1ccc(C#Cc2ccc3c(c2)c(=O)c2ccccc2n3C)cc1` as the compound, how does the Potency read?
A: inconclusive: 17.8 µM [falling, single point]

Q: For `C=CCSc1nc2sc3c(c2c(=O)n1-c1ccccc1)CCN(C)C3`, which activity change, negative = inhibition is on record?
A: inactive
